# No constants are given. Whether binding was seen depends on the method and setting. In cells and extracts the contact can be indirect. A yes stands for co-enrichment or nearness to the bait. Other partners may have been found.
# By UniProt entry, the sequences of proteins in these tests, tags left out.
# UniProt Q93009: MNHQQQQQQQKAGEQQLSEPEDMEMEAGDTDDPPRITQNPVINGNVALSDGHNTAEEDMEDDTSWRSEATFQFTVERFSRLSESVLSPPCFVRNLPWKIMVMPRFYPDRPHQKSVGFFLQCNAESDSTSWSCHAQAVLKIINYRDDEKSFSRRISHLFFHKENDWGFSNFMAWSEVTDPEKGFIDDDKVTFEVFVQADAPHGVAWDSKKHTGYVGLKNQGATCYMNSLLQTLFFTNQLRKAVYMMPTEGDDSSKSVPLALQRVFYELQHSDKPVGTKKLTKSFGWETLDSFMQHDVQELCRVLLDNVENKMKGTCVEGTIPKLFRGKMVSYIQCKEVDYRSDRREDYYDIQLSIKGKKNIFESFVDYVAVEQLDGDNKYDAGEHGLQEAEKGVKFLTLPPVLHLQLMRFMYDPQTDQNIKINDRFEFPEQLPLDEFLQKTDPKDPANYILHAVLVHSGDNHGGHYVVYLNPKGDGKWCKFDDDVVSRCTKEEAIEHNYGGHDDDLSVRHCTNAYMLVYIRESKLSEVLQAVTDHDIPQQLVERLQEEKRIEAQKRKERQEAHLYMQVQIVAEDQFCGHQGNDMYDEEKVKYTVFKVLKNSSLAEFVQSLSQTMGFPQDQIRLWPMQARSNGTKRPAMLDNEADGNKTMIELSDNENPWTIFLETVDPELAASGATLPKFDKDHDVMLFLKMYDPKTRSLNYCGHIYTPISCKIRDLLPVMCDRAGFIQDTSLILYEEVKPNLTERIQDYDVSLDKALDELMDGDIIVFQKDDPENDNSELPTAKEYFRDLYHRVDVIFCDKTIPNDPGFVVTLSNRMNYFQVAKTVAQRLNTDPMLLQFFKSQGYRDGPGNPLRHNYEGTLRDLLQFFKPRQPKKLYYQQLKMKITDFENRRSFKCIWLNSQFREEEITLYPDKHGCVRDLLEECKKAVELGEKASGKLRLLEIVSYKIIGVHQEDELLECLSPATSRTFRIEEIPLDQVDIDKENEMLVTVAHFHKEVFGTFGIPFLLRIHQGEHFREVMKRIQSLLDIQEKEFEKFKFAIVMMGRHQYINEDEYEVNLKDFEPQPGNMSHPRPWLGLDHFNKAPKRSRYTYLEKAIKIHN
# Biological target: fat mass and obesity-associated protein (FTO), endogenous (human (endogenous in HEK 293 T and CFPAC-GM)) (UniProt Q9C0B1)
# Test: affinity purification with mass spectrometry; IP/MS of FTO from CFPAC-GM total protein; primary antibody overnight at 4 C, protein G Dynabeads 1 h at room temperature, full gel lane analysed, compared with an IgG group; hits co-analysed with GEO GSE80617
substance,measurement,value
"Ubiquitin-specific protease 7 (USP7), endogenous (from UniProt Q93009 1-1102) (enzyme)",binding,binds

# From paper PMC10464189
